## Primary screen of a compound library

Values are the deposited “Percent Effect”, in %. The record does not define 0% and 100%; most values in the screen are far below 50% and negative numbers occur (in some assays of this library far below -100). Compounds were drawn at random from those tested, without regard to their results. A dash means the value is not listed here; it may have been measured.

Mtb growth Cornell: 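Whole-cell assay for inhibitors of Mycobacterium tuberculosis growth, labelled Cornell in the record; the read-out is not stated. The concentration is filed as 10 mM, unlikely as a test dose, so the dose is not known. The record gives no direction; compounds strong in two other growth screens of this library score well above the rest, so higher reads as stronger inhibition. Size under these conditions: about 53,000 compounds, about 900 of them at 50% or above in at least one test.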
Mtb heat-shock: 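Assay on Mycobacterium tuberculosis, filed only as a heat shock assay from Cornell; the read-out is not stated. The concentration is filed as 10 mM, unlikely as a test dose, so the dose is not known. The record gives no direction; compounds that gave an IC50 in retests scored well above the rest, so higher reads as stronger inhibition. Of about 69,000 compounds tested this way, about 930 (1.4%) reached 50% or more in at least one test.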

SMILES,Mtb growth Cornell,Mtb heat-shock
COC(=O)C1CCN(C(=O)Cn2ccc(-c3ccccc3)n2)CC1,14.94,-6.761
COC(=O)CCNC(=O)c1nnn(-c2ccc(C)cc2)c1C1CC1,-15.5,-21.46
COCc1cccc(S(=O)(=O)Nc2ncc(C)s2)c1,31.12,15.26
COc1cc2nc(C)n(CC(=O)NCCN(C)C)c(=O)c2cc1OC,-0.0309,-13.72
CC(C)n1cc(CN2CCCN(C(=O)CN3CCCC3=O)CC2)cn1,-76.07,-21.27
NC(=O)C1CCN(C(=O)c2ccccc2OCc2ccccc2Cl)CC1,37.39,2.625
COc1ncccc1CNC(=O)N(Cc1ccc(F)cc1F)C1CC1,-,-9.747
CCN(CC)CCN(CC(C)C)c1cc(C(F)(F)F)nc2ncnn12,-,6.565
Cc1cnn(CCNCCCOc2ccccc2)c1,-0.07673,-24.48
Cc1nnsc1CN(C)C(=O)CN1CC2(CCNCC2)OC1=O,-97,11.13
COc1ccc(CN2CCOC(CCc3ccnc(N)c3)C2)cc1 (stereo not drawn),-,-8.448
Cc1ccc(-c2n[nH]cc2CNCC2CCN(CC(C)O)CC2)cc1 (stereo not drawn),-8.295,-1.492
CN(C)C[C@H]1C[C@H](CO)CN(C(=O)c2cc(S(N)(=O)=O)ccc2F)C1,19.43,-4.465
CCn1cnnc1C1CCN(C(=O)c2cc3c(s2)CCOC3)CC1,-,2.736
COc1cnc(N2CCCN(c3ccc(F)cc3)CC2)nc1,19.76,26.81
OCCN1CCC(c2cncc(-c3cccc(Cl)c3)n2)CC1,-21.45,-13.09
CC1CCN(S(=O)(=O)N2CCc3c(c(C(=O)O)nn3CC3CC3)C2)CC1,6.739,-0.4436
O=C(c1ccc2c(c1)OCO2)N1CCC[C@]2(C[C@H](OCC3CC3)CO2)C1,-,-11.19
CN1CCN(c2ncc(CNCCCc3cccc(F)c3)cn2)CC1,-49.9,-28.87
[H][C@]12CCCCN1CCC[C@H]2CN(C)Cc1nc2ccccc2c(=O)[nH]1,16.55,44.63
CCc1ocnc1C(=O)N1CCN(c2nncc3ccccc23)CC1,6.764,-20.54
CN(C)Cc1nnc(C(=O)N(C)Cc2ccc(F)cc2)o1,-,-24.52
C[C@@H]1CN(C(=O)CCCN2CCOCC2)C[C@@]1(O)C1CC1,-34.27,5.991
O=S(=O)(N1CCCCCC1)N1CCCN(CC2CCCO2)CC1 (stereo not drawn),13.27,-7.084
Cc1cc(C2CCCCN2C(=O)c2ccsc2)nc2nccn12 (stereo not drawn),-13.93,-33.68
O=C1CCCN1Cc1nnc2n1CCN(Cc1ccco1)C2,-8.782,26.92
COc1ccccc1C1(CNCc2cccc(C#N)c2)CCOCC1,14.38,-7.382
[H][C@@]12CCN(Cc3cc(C)on3)C[C@@]1([H])O[C@H](C)C2,-24.96,-12.96
Cc1nccn1CCN(C)C(=O)c1cn(CC2CCCCC2)nn1,0.9447,5.314
Fc1ccccc1OCCc1cc(C2CCNC2)n[nH]1 (stereo not drawn),-26.96,-16.87
CCS(=O)(=O)CCN1CCN(C(C)c2cccnc2)CC1 (stereo not drawn),5.466,3.925
CC(C)OCc1nn(CC2CC2)c2c1CN(Cc1ccco1)CC2.O=C(O)C(F)(F)F,-,-0.528
O=C(O)C(F)(F)F.[H][C@@]12CN(Cc3ccccn3)C[C@]1([H])CN(C(=O)Cc1ccc(OC)cc1)C2,30.29,-6.157
c1cc2c(cc1-c1noc3c1CN(C1CCSC1)CC3)OCO2 (stereo not drawn),-0.1172,24.76
COc1ccc(C(CO)NC(=O)Nc2cccc(C(C)=O)c2)cc1 (stereo not drawn),-34.59,-4.358
CC(C)n1cc(C(=O)NCCN(C)C)c2n[nH]c(=O)c-2c1,-3.946,4.828
CC(C)CN1CC(O)CN(C(=O)c2cccc(C(F)(F)F)c2)CC1=O (stereo not drawn),-24.35,3.734
O=C(O)C(F)(F)F.[H][C@@]12OCCN(CC3CCOCC3)[C@@]1([H])CC[C@H]2OCC1CCCC1,11.15,-13.78

Some entries from above, unchanged:

For [H][C@]12CCCCN1CCC[C@H]2CN(C)Cc1nc2ccccc2c(=O)[nH]1 the result was Mtb growth Cornell: 16.55%; Mtb heat-shock: 44.63%.
For C[C@@H]1CN(C(=O)CCCN2CCOCC2)C[C@@]1(O)C1CC1 the result was Mtb growth Cornell: -34.27%; Mtb heat-shock: 5.991%.
For [H][C@@]12CCN(Cc3cc(C)on3)C[C@@]1([H])O[C@H](C)C2 the result was Mtb growth Cornell: -24.96%; Mtb heat-shock: -12.96%.

Source: ChEMBL document CHEMBL3988442, “University of Dundee, Small-Polar-MMV Screening Library” (2021).